From publication PMC7819943, “Rice protein-binding microarrays: a tool to detect cis-acting elements near promoter regions in rice”
The other results are listed elsewhere or left out.

Protein sequences, listed by entry. Tags and fused reporters are not part of them.
UniProt Q0JBA9, entry or part of it: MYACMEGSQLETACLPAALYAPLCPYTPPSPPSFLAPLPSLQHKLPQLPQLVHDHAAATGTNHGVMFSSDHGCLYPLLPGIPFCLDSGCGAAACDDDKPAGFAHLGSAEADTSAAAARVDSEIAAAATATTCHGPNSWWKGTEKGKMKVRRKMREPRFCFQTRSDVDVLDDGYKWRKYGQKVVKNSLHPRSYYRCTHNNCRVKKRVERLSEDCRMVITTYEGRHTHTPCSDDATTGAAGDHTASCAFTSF

Target: OsWRKY34 (Oryza sativa, UniProt Q0JBA9 1-250)
Test: protein-binding microarray (RPBM); PBS, 2% BSA, 51.3 ng/ul salmon testes DNA, 50 uM zinc acetate, 200 nM TF, 25 C, 1 h; high values mean tight binding
Details: protein: recombinant; tags: N-terminal polyhistidine and DsRed monomer fusion (pET32a); label: CyDye5-dUTP incorporated in the synthesized complementary strand; 3' TTTTT single-stranded linker to array surface; dsDNA, one strand shown
Outline: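 Polyhistidine-tagged DsRed fusions of transcription factors, joined at the N-terminus, were expressed in E. coli BL21-CodonPlus and isolated on Ni–NTA. They were incubated at 200 nM for 1 h at 25 °C on a custom Agilent array, double-stranded and BSA-blocked, in PBS with 2% BSA, salmon testes DNA and 50 µM zinc acetate. The binding signal is per-feature fluorescence intensity (arbitrary units) read on an Axon 4000B scanner after washing.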

Sequence | binding signal
CTCGTTGATAACATTTGGATAAATCATTTTGTTCCTATTTCGGAGTCACCTAGTGCAG | 9810 fluorescence intensity (a.u.)
CCTGTATAAATTCTTGTGTGTCTCTTGCTGCGCGGGGTGGCGGAGTCACCTAGTGCAG | 12300 fluorescence intensity (a.u.)
TGCAGCTTTGCCGCGCGTATTTTCTAGTCCCTATCTGGATCGGAGTCACCTAGTGCAG | 8580 fluorescence intensity (a.u.)
TGTTTAGCTACTTCCTCGCTTTCTTTAAGTATGTTTCATACGGAGTCACCTAGTGCAG | 10300 fluorescence intensity (a.u.)
TTTTTGCGTGCTCTTATCCTGTTTAGTTGTTGGCTTGTGACGGAGTCACCTAGTGCAG | 10400 fluorescence intensity (a.u.)
TCATCAGAGTACCAATCCCCTTTATACCTGAACCTTTACACGGAGTCACCTAGTGCAG | 8420 fluorescence intensity (a.u.)
ATGTACGACGCTATTGACTTTTTAACCAACGTTTGACTATCGGAGTCACCTAGTGCAG | 11000 fluorescence intensity (a.u.)
ACTCATGTCCGACGTCCTGCTGCTCCTGTCGCTCCACTGACGGAGTCACCTAGTGCAG | 8450 fluorescence intensity (a.u.)
ATTTCTTTGTTCATATACACTTGATATACCTTACTCCCAACGGAGTCACCTAGTGCAG | 9080 fluorescence intensity (a.u.)
AGCTCTCTCTCTCTCTCTCTCGTTCTTGCGGGCCTGCGACCGGAGTCACCTAGTGCAG | 8380 fluorescence intensity (a.u.)
TGTTTGGTAGTAGTTACATTAATAATTCCATTGAATTTACCGGAGTCACCTAGTGCAG | 8680 fluorescence intensity (a.u.)
AAGATACACGATTGATTCATTGTTTGCACCAACAATATGCCGGAGTCACCTAGTGCAG | 10100 fluorescence intensity (a.u.)
GTACAGCGATACTCTTATCTTTTTTTAAAAAAATGTTTCCCGGAGTCACCTAGTGCAG | 9200 fluorescence intensity (a.u.)
TACTCCCTTCTTCCTTAGATGTTTGACACCGTTGACTTTTCGGAGTCACCTAGTGCAG | 16900 fluorescence intensity (a.u.)
AAAGGCTTGCATTGTGGTAGAGAGGGGATGCATGCTACTCCGGAGTCACCTAGTGCAG | 8400 fluorescence intensity (a.u.)
GTTACACAATTCTACACTGGTCATACAAGGCAGCACTATCCGGAGTCACCTAGTGCAG | 8250 fluorescence intensity (a.u.)
AGTATGTCATCTGTGTTTAAGTCGATTTTAAGTTCATTCGCGGAGTCACCTAGTGCAG | 8180 fluorescence intensity (a.u.)
TATGTGGGTGATTTGTTACAACGGCGCGTTCCATAATATTCGGAGTCACCTAGTGCAG | 11500 fluorescence intensity (a.u.)
CGGTCATCGGTCGACGTCCCAACTTTCTTTTCACCTCACGCGGAGTCACCTAGTGCAG | 9150 fluorescence intensity (a.u.)
TATTTTTTGTGATGTTTTAGTTGATGTTTCACTACTTTATCGGAGTCACCTAGTGCAG | 8690 fluorescence intensity (a.u.)
ACCGCGTCCACAGAACCACCTCACACGCGCCGCGCAACAACGGAGTCACCTAGTGCAG | 8600 fluorescence intensity (a.u.)

13 entries from above, in CSV form.
Sequence,binding signal
ACTCATGTCCGACGTCCTGCTGCTCCTGTCGCTCCACTGACGGAGTCACCTAGTGCAG,8450 fluorescence intensity (a.u.)
ATTTCTTTGTTCATATACACTTGATATACCTTACTCCCAACGGAGTCACCTAGTGCAG,9080 fluorescence intensity (a.u.)
AGCTCTCTCTCTCTCTCTCTCGTTCTTGCGGGCCTGCGACCGGAGTCACCTAGTGCAG,8380 fluorescence intensity (a.u.)
TGTTTGGTAGTAGTTACATTAATAATTCCATTGAATTTACCGGAGTCACCTAGTGCAG,8680 fluorescence intensity (a.u.)
AAGATACACGATTGATTCATTGTTTGCACCAACAATATGCCGGAGTCACCTAGTGCAG,10100 fluorescence intensity (a.u.)
GTACAGCGATACTCTTATCTTTTTTTAAAAAAATGTTTCCCGGAGTCACCTAGTGCAG,9200 fluorescence intensity (a.u.)
TACTCCCTTCTTCCTTAGATGTTTGACACCGTTGACTTTTCGGAGTCACCTAGTGCAG,16900 fluorescence intensity (a.u.)
AAAGGCTTGCATTGTGGTAGAGAGGGGATGCATGCTACTCCGGAGTCACCTAGTGCAG,8400 fluorescence intensity (a.u.)
GTTACACAATTCTACACTGGTCATACAAGGCAGCACTATCCGGAGTCACCTAGTGCAG,8250 fluorescence intensity (a.u.)
AGTATGTCATCTGTGTTTAAGTCGATTTTAAGTTCATTCGCGGAGTCACCTAGTGCAG,8180 fluorescence intensity (a.u.)
TATGTGGGTGATTTGTTACAACGGCGCGTTCCATAATATTCGGAGTCACCTAGTGCAG,11500 fluorescence intensity (a.u.)
CGGTCATCGGTCGACGTCCCAACTTTCTTTTCACCTCACGCGGAGTCACCTAGTGCAG,9150 fluorescence intensity (a.u.)
TATTTTTTGTGATGTTTTAGTTGATGTTTCACTACTTTATCGGAGTCACCTAGTGCAG,8690 fluorescence intensity (a.u.)

The results go on.

Sequence | binding signal
GGTGTTCAGCTTTTGCTTGACTCCTGTACCGTCTTAACATCGGAGTCACCTAGTGCAG | 10900 fluorescence intensity (a.u.)
TATATATATATATATATATAGACACACACATCAACAACAACGGAGTCACCTAGTGCAG | 11300 fluorescence intensity (a.u.)
TCCCATGTTACCGTTCATGCTGGCTTAGCTTAAGCTAATCCGGAGTCACCTAGTGCAG | 8120 fluorescence intensity (a.u.)
TGTTGGCAGTCCGACGTTGACCAAACTTGACTCGTCCAGACGGAGTCACCTAGTGCAG | 10100 fluorescence intensity (a.u.)
TCGTGGACGTCACCCCATTTTCTCCTCGCTTCCCGCGTAACGGAGTCACCTAGTGCAG | 11700 fluorescence intensity (a.u.)
TCACATTGTACAATCACCTAGAAATTTGCTCACTTCCATGCGGAGTCACCTAGTGCAG | 9100 fluorescence intensity (a.u.)
ACCCTGTTTAGGAAATATGCTGGCTCATACTACCTCCGTTCGGAGTCACCTAGTGCAG | 8610 fluorescence intensity (a.u.)
AACATATTATTCATTTTATTCATTGGCTAGCGGTGGCGAACGGAGTCACCTAGTGCAG | 9010 fluorescence intensity (a.u.)
TACGTCACTCCGTACTCCTCTCTTCCTGCCTGCCTACTCTCGGAGTCACCTAGTGCAG | 10100 fluorescence intensity (a.u.)
CGGCGTCATGGTCCCTCTTCCGAGCAGCAGTACGGACATCCGGAGTCACCTAGTGCAG | 8540 fluorescence intensity (a.u.)
GCAACACACGTACACATCACATCTCTCGATTGGCTTCCTTCGGAGTCACCTAGTGCAG | 14500 fluorescence intensity (a.u.)
TATATTTTCTTATAACTTAGTACCGAGCACCAGATCCAGTCGGAGTCACCTAGTGCAG | 8500 fluorescence intensity (a.u.)
AACTAGTCGTCGACTACATGCTCAAGCTTTATGCCGCTATCGGAGTCACCTAGTGCAG | 9780 fluorescence intensity (a.u.)
CTATCTCTCTCATCTTTTTTTTTTGTTTTTTCCTATGGTACGGAGTCACCTAGTGCAG | 8410 fluorescence intensity (a.u.)
TTGCGTTCACCGCCTATAAATACCGTTGCCTAGCGCTGTCCGGAGTCACCTAGTGCAG | 8240 fluorescence intensity (a.u.)
AATAGCCATCGATACACACTCCTCTTTCTTTTCTCTCTTCCGGAGTCACCTAGTGCAG | 9290 fluorescence intensity (a.u.)
ATCAATCCAGTCATTACAATGTCACCATGTGAACACGTATCGGAGTCACCTAGTGCAG | 8330 fluorescence intensity (a.u.)
TCAGCTGCGTCACCCGAGTCCTCCACTCGTCTCCGCTATTCGGAGTCACCTAGTGCAG | 9610 fluorescence intensity (a.u.)
CGCCACCCTTCATCGCCAGAGTCACGACCACCATCGCCTCCGGAGTCACCTAGTGCAG | 8250 fluorescence intensity (a.u.)
TCCAGATATCCCGATACTTTCCATTCAAATTTTAATTTCTCGGAGTCACCTAGTGCAG | 9050 fluorescence intensity (a.u.)
TTATGAATACGATCTACTTATTTGCTCTTCCTGTAGTTATCGGAGTCACCTAGTGCAG | 10800 fluorescence intensity (a.u.)
